Reference: patent US20250115654A1, “PHARMACEUTICAL COMPOSITION OF GLP-1 RECEPTOR AND GIP RECEPTOR DUAL AGONIST, AND USE THEREOF” (FUJIAN SHENGDI PHARMACEUTICAL CO., LTD., priority 2021, published 2025)
Several values for one entry are separate records, joined by “and”; a condition that tells them apart may be missing. Equal entries are not always repeated. Part of at least one peptide drawing is inferred or uncertain, most often the ends. Marks after values point to notes of the source that are not given here.

Chains of the proteins cited; added tags and fusions are not shown. Residues count along the entry.
UniProt P43220, 24-463: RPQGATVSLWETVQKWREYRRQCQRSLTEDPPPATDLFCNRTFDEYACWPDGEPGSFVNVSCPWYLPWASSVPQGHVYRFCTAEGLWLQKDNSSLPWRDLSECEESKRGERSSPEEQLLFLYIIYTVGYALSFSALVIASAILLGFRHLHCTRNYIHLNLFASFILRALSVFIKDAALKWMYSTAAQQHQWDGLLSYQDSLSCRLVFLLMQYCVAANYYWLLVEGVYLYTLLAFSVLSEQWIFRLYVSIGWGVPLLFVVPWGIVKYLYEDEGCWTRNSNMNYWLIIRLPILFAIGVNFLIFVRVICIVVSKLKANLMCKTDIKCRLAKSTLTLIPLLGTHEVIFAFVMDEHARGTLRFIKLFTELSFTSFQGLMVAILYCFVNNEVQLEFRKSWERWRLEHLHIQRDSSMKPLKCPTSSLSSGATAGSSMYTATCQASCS

Assays:
[1] = molecular target: human GLP-1R (Homo sapiens, UniProt P43220); assay: Agonist activity against GLP-1R, cAMP HTRF in CHO-K1/GLP-1R/CRE-luc stable cells; details: comparison of agonist activity at human GLP-1R and human GIPR
[2] = system: diet-induced-obesity mice; assay: Body weight of diet-induced-obesity mice, subcutaneous administration once every 3 days; assay type: in vivo, C57BL/6 mice; details: for rate of change in body weight: 10 nmol/kg
[3] = system: db/db mice; assay: Glucose metabolism level of db/db mice (fasting and random blood glucose, glycated hemoglobin); assay type: in vivo, C57BL/KsJ-db/db mice; details: 100 nmol/kg
Experimental: Each administration group had 10 db/db mice. According to the experimental design, tail vein blood was collected by needle pricking on days 0, 7, 14, 21, and 28 and determined for fasting blood glucose levels with a glucometer and glucose dipsticks, and the mice were fasted 6 h prior to the blood collection at each time point. Tail vein blood was collected by needle pricking on days 3, 10, 17, 24, and 27 and randomly determined for blood glucose levels with a glucometer. Finally, at the end of the experiment on day 28, all the animals in the administration groups were subjected to 2-5% isoflurane inhalation anesthesia, and 100 μL of whole blood was collected through the orbit of each mouse using an EDTA-K2 anticoagulation tube and used for the determination of glycated hemoglobin.

[4] = system: normal mice; assay: Blood glucose in normal mice after a single subcutaneous administration and intraperitoneal glucose; assay type: in vivo, C57BL/6 mice; details: 10 nmol/kg sc; for Blood glucose (mmol/L, mean ± SD): glucose ip 18 h later
Experimental: 18 h later, a glucose solution at a concentration of 0.2 g/mL was intraperitoneally injected. Blood glucose values were measured by collecting blood from the tail of mice at time points of 0 min, 15 min, 30 min, 60 min, and 120 min according to the experimental design. The specific procedures were as follows: the mouse was physically immobilized with the tail exposed, a little part was cut off at the tail end, then the tail was squeezed to bleed, and blood glucose was determined using a Roche active glucometer after the 1st drop of blood was discarded. The area under the blood glucose curve (AUC) was calculated from the results of all time points.

SMILES: CC[C@H](C)[C@H](NC(=O)[C@H](CC(C)C)NC(=O)[C@H](Cc1c[nH]c2ccccc12)NC(=O)[C@H](CCC(N)=O)NC(=O)[C@@H](NC(=O)[C@H](Cc1ccccc1)NC(=O)[C@H](C)NC(=O)[C@H](CCCCNC(=O)COCCOCCNC(=O)COCCOCCNC(=O)CC[C@H](NC(=O)CCCCCCCCCCCCCCCCCCC(=O)O)C(=O)O)NC(=O)[C@H](CCC(N)=O)NC(=O)[C@H](C)NC(=O)[C@@H](NC(=O)[C@H](CCCCN)NC(=O)[C@H](CC(=O)O)NC(=O)[C@H](CC(C)C)NC(=O)C(C)(C)NC(=O)[C@@H](NC(=O)[C@H](CO)NC(=O)[C@H](Cc1ccc(O)cc1)NC(=O)[C@H](CC(=O)O)NC(=O)[C@H](CO)NC(=O)[C@@H](NC(=O)[C@H](Cc1ccccc1)NC(=O)[C@@H](NC(=O)CNC(=O)[C@H](CCC(=O)O)NC(=O)C(C)(C)NC(=O)[C@@H](N)Cc1ccc(O)cc1)[C@@H](C)O)[C@@H](C)O)[C@@H](C)CC)[C@@H](C)CC)C(C)C)C(=O)N[C@@H](C)C(=O)NCC(=O)NCC(=O)N1CCC[C@H]1C(=O)N[C@@H](CO)C(=O)N[C@@H](CO)C(=O)NCC(=O)N[C@@H](C)C(=O)N1CCC[C@H]1C(=O)N1CCC[C@H]1C(=O)N1CCC[C@H]1C(=O)N[C@@H](CO)C(N)=O [LY3298176, reference compound]
- preferential activity between GLP-1R and GIPR [1]: preferential activity against GIPR
- body weight reduced ([2]; 10 nmol/kg dose group, day 27): about 13.4%
- rate of change in body weight ([2]; day 0 (before administration)): 0%
- rate of change in body weight ([2]; day 1 after administration): −4.2 ± 1^ %
- rate of change in body weight ([2]; day 2 after administration): −5.4 ± 0.8%
- rate of change in body weight ([2]; day 3 after administration): −4.4 ± 1.2%
- rate of change in body weight ([2]; day 4 after administration): −7.8 ± 1.6 %
- rate of change in body weight ([2]; day 5 after administration): −8.7 ± 2.1 %
- rate of change in body weight ([2]; day 6 after administration): −7.6 ± 2.8 %
- rate of change in body weight ([2]; day 7 after administration): −10.4 ± 2.6 %
- rate of change in body weight ([2]; day 8 after administration): −10.7 ± 3.2 %
- rate of change in body weight ([2]; day 9 after administration): −9.6 ± 3.4 %
- rate of change in body weight ([2]; day 10 after administration): −12.3 ± 3.6 %
- rate of change in body weight ([2]; day 11 after administration): −12.4 ± 3.9 %
- rate of change in body weight ([2]; day 12 after administration): −11.1 ± 4***^ %
- rate of change in body weight ([2]; day 13 after administration): −13.5 ± 4.7 %
- rate of change in body weight ([2]; day 14 after administration): −13.1 ± 5.3 %
- rate of change in body weight ([2]; day 15 after administration): −11.3 ± 5.5 %
- rate of change in body weight ([2]; day 16 after administration): −14.3 ± 6 %
- rate of change in body weight ([2]; day 17 after administration): −14.2 ± 6.6 %
- rate of change in body weight ([2]; day 18 after administration): −12.8 ± 6.6 %
- rate of change in body weight ([2]; day 19 after administration): −16.3 ± 6.2 %
- rate of change in body weight ([2]; day 20 after administration): −15.7 ± 6.6 %
- rate of change in body weight ([2]; day 21 after administration): −13.8 ± 6.6 %
- rate of change in body weight ([2]; day 22 after administration): −16.1 ± 6.8 %
- rate of change in body weight ([2]; day 23 after administration): −15.6 ± 7.1 %
- rate of change in body weight ([2]; day 24 after administration): −14.1 ± 7.1 %
- rate of change in body weight ([2]; day 25 after administration): −16.9 ± 7.2 %
- rate of change in body weight ([2]; day 26 after administration): −16 ± 7.7 %
- rate of change in body weight ([2]; day 27 after administration): −13.4 ± 7.8 %
- rate of change in body weight ([2]; day 28 after administration): −15.8 ± 7.6 %
- Concentration of fasting blood glucose (mMol/L, mean ± SD) ([3]; Day 0): 14.35 ± 1.41 mmol/L
- Concentration of random blood glucose (mMol/L, mean ± SD) ([3]; Day 0): 18.60 ± 1.52 mmol/L
- Concentration of fasting blood glucose (mMol/L, mean ± SD) ([3]; Day 7): 7.44 ± 0.76 mmol/L
- Concentration of random blood glucose (mMol/L, mean ± SD) ([3]; Day 10): 17.10 ± 1.96 mmol/L
- Concentration of fasting blood glucose (mMol/L, mean ± SD) ([3]; Day 14): 7.56 ± 0.88 mmol/L
- Concentration of random blood glucose (mMol/L, mean ± SD) ([3]; Day 17): 17.98 ± 1.37 mmol/L
- Concentration of fasting blood glucose (mMol/L, mean ± SD) ([3]; Day 21): 9.42 ± 1.67 mmol/L
- Concentration of random blood glucose (mMol/L, mean ± SD) ([3]; Day 24): 20.70 ± 1.27 mmol/L
- Concentration of fasting blood glucose (mMol/L, mean ± SD) ([3]; Day 28): 9.89 ± 1.28 mmol/L
- Glycated hemoglobin (%, mean ± SD) ([3]; end of experiment day 28): 4.58% and 4.58 ± 0.23 %
- AUC (area under the blood glucose curve) ([4]; 0-120 min): 12.7 ± 1.6 mmol·h/L
- Blood glucose (mmol/L, mean ± SD) ([4]; 0 min): 3.2 ± 0.2 mmol/L
- Blood glucose (mmol/L, mean ± SD) ([4]; 15 min): 9.1 ± 1.3 mmol/L
- Blood glucose (mmol/L, mean ± SD) ([4]; 30 min): 8 ± 1.4 mmol/L
- Blood glucose (mmol/L, mean ± SD) ([4]; 60 min): 6.4 ± 1.0 mmol/L
- Blood glucose (mmol/L, mean ± SD) ([4]; 120 min): 4.5 ± 0.7 mmol/L
